# Test results from PubChem BioAssay AID1508615 (Milbrandt Lab, Department of Genetics, Washington …, 2020).
# Protein sequences, listed by entry. Tags and fused reporters are not part of them. Lines headed by an entry give the natural chain unless they say otherwise; changes in a name come on top.
# UniProt Q6SZW1: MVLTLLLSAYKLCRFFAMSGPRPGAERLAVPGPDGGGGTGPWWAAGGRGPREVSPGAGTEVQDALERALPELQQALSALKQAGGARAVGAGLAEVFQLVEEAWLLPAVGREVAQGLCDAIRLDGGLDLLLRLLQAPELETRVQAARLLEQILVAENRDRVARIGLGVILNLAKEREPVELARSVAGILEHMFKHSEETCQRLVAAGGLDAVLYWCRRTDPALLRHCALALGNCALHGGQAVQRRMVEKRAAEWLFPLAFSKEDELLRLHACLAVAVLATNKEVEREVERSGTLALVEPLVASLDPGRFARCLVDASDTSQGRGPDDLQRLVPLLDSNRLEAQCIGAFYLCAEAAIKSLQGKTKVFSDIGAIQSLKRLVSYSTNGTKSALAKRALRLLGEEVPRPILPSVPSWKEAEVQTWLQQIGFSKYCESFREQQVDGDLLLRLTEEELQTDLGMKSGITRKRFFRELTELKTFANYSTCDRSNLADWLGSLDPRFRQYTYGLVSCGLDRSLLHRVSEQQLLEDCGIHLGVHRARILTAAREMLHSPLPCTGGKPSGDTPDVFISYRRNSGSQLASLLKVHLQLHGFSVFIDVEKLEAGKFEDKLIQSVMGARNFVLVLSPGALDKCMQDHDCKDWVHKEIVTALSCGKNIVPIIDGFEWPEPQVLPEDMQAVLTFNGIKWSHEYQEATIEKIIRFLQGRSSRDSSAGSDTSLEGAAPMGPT
# About 20 (1%) of roughly 1,600 compounds were called active.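 Rule for the calls: active = ratio of uncleaved NAD to its breakdown product ADP-ribose above 4, meaning the enzyme was inhibited; inactive = the rest.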 This is one part of the list.
# Target: NAD(+) hydrolase SARM1 (Homo sapiens) (UniProt Q6SZW1)
# Assay: inhibition of SAM-TIR NAD hydrolysis to ADPR – cell lysate, HPLC readout, primary screen (AID 1508615);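 note: substrate NAD at 5 µM with 60 min at 37 °C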
# Settings: HEK293T SAM-TIR lysate, NAD/ADPR ratio by HPLC; at 5 µM; active compounds read high
row,SMILES,NAD/ADPR ratio
1,c1ccc2nc(OCCN3CC3)ccc2c1,inactive: 3
2,C=CCCC1(C2=CCCCC2)C(=O)NC(=O)NC1=O,inactive: 3
3,CNC(=O)Oc1c(C)[nH]ccc1=O,inactive: 3
4,O=S(=O)(F)c1ccc2nc(-c3cccc(Sc4ccccc4)c3)cc(Cl)c2c1,inactive: 3
5,COc1ccc(C2=CC(c3ccc(OC)c(OC)c3)c3c(c4ccccc4oc3=O)O2)cc1OC (stereo not given),inactive: 3
6,CC(C)OC1CCCC(O)C1CC(=O)O (stereo not given),inactive: 3
7,COC(=O)c1nc(-c2ccc3c(n2)C(=O)C(N)=C(OC)C3=O)c(N)c(-c2ccc(OC)c(OC)c2O)c1C,inactive: 3
8,OCC1CN1C1CCCCC1 (stereo not given),inactive: 3
9,Cc1ccc(-n2c(O)c(C=N)c(=O)n(-c3ccc(C)cc3)c2=O)cc1,inactive: 3
10,CC(Cc1ccccc1)NC(N)=O (stereo not given),inactive: 3
11,COc1cccc2c1C(=O)c1c(O)c3c(c(O)c1C2=O)CC(O)(C(C)=NO)CC3OC1CC(N)C(O)C(C)O1 (stereo not given),inactive: 3
12,O=[N+]([O-])c1cc(-c2ccc([As](=O)(O)O)cc2)ccc1[As](=O)(O)O,inactive: 3
13,CC12CCC3C(CC=C4CC(O)CCC43C)C1C/C(=C\N1CCCC1)C2=O (stereo not given),inactive: 3
14,C/C=C(/C)C(=O)O[C@H]1CCN2CC=C(COC(=O)[C@@](O)([C@H](C)OC)C(C)(C)O)[C@H]12,inactive: 3
15,Cc1ncc([N+](=O)[O-])n1CCOC(N)=O,inactive: 3
16,CCC1CN1P1(=O)OCC(C)([N+](=O)[O-])CO1 (stereo not given),inactive: 3
17,O=[N+]([O-])c1oc2ccc3ccccc3c2c1CCO,inactive: 3
18,c1ccc2c(c1)Sc1ccccc1N2CC1CN2CCC1CC2 (stereo not given),inactive: 3
19,CNC(=O)Oc1ccc(N(C)C)cc1C(C)C,inactive: 3
20,CC12CCC3c4ccc(OC(=O)N(CCCl)CCCl)cc4CCC3C1CCC2O (stereo not given),inactive: 3
21,NC(=O)c1ccc(C(=O)Nc2ccc([As](=O)(O)O)cc2)cc1,inactive: 3
22,CSc1nc(C)c(Br)c(N2CC2)n1,inactive: 3
23,COC(=O)C1C(O)C(C)C(O)C(C)/C=C\C=C(/C)C(=O)Nc2c(C)c(OC(C)=O)c3c(c2O)C(=O)C(C)=C2OCOC(=C23)/C(C)=C/C(C)(O)C(O)C(C)C1O (stereo not given),inactive: 3
24,CCN1CC2C3CCC(C)(O3)C2C1 (stereo not given),inactive: 3
25,C[C@H]1CC[C@H]2NCCN[C@H]2C1,inactive: 3
26,C=Cc1cc(OC)c2c(c1)c(=O)oc1c2cc(OC)c2c(O)ccc(C3OC(C)C(O)C(C)(O)C3O)c21 (stereo not given),inactive: 3
27,CC(=O)Nc1cccc([As](=O)(c2cccc(NC(C)=O)c2)c2cccc(NC(C)=O)c2)c1,inactive: 3
28,CC1Oc2cc3c(-c4c(O)cc(O)c5c(O)c6c(cc45)OC(C)C(C)C6=O)c(O)cc(O)c3c(O)c2C(=O)C1C (stereo not given),inactive: 3
29,O=C1NC(=O)C(=Cc2csc3ccccc23)C(=O)N1,inactive: 3
30,CCC1CCC(C)N(N=O)C1 (stereo not given),inactive: 3

# A second format for part of the listing above.
row	SMILES	NAD/ADPR ratio
18	c1ccc2c(c1)Sc1ccccc1N2CC1CN2CCC1CC2 (stereo not given)	inactive: 3
19	CNC(=O)Oc1ccc(N(C)C)cc1C(C)C	inactive: 3
